The nature of the experiment: qHTS Assay to Find Inhibitors of Chronic Active B-Cell Receptor Signaling. The following applies: ABC-DLBCL IkBa-CBG/CBR reporter, luminescence ratio (green luciferase fused to IkBa over red control in TMD8 lymphoma cells), 4 h. The gist of the method: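 TMD8 ABC-DLBCL cells carrying doxycycline-inducible green luciferase fused to IkappaBalpha plus unfused red luciferase were exposed to compounds (up to 46 uM) for 4 hrs at 37C. Activity came from the overlap-corrected green/red luminescence ratio.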

The mark [1] stands for this setting: measured here: CBR red luminescence, cell number.
The mark [2] stands for this setting: measured here: IkBa-CBG green luminescence.

The other results are listed elsewhere or left out. The main result of the screen is listed elsewhere. These columns were measured beside it and carry no call. Compounds called inactive in the main read-out are mostly missing here. Words in brackets tell the shape of the fitted curve; partial curves, single points and poor fits give uncertain potencies.

We go through 40 compounds from PubChem BioAssay AID493014 (National Center for Advancing Translational Sciences (NCATS), 2011).

On to `Cc1cc(NC(=O)c2c(Cl)cccc2Cl)no1`, for which the AC50 (as a rule, the midpoint of the concentration-response curve, whichever way the signal moves) under setting [1] is 17.8 µM [falling, partial curve, poor fit]. The same measure, in the same setting: with `CC(C)CC1(C)NC(=O)N(Cc2cc([N+](=O)[O-])cc3c2OCOC3)C1=O` (centres undefined) the figure was 0.316 µM [rising, full curve, poor fit].

In the case of `COC(=O)C1=C(C)NC(C)=C(C(=O)OC)C1c1ccc(N(C)C)cc1`, the AC50 under setting [2] is 23.1 µM [falling, partial curve, poor fit]. Take `N#CSCC(=O)c1cccc2ccccc12`: the AC50 was 23.1 µM [rising, single point] under setting [1] and 29.1 µM [falling, single point] under setting [2]. For the compound `CCc1nnc(NC(=O)c2ccc(S(=O)(=O)N3CCCc4ccccc43)cc2)o1`, the AC50 under setting [1] was 0.184 µM [falling, full curve, poor fit].

Turning to `NC(N)=NC(N)=Nc1ccc(SC(F)(F)F)cc1`, the AC50 under setting [1] is 16.4 µM [falling, partial curve]. As for `COc1ccc(/C=C2\COc3ccccc3C2=O)cc1OC`, the AC50 under setting [1] was 29.1 µM [falling, single point]. As to `CC1CCc2c(C(=O)Nc3ccc(N4CCOCC4)cc3)csc2C1` (centres undefined), the AC50 under setting [1] was 11.2 µM [rising, partial curve, poor fit].

As for `COC(=O)c1ccc(COc2ccccc2/C=C(\C#N)C(=O)Nc2c(C)cccc2C)cc1`, the AC50 is 18.4 µM [falling, partial curve] under setting [1] and 20.6 µM [falling, single point] under setting [2]. For the compound `COc1cccc(C(=O)Nc2ccc(NC(=O)C3CC3)cn2)c1`, the AC50 under setting [1] is 2 µM [falling, full curve]. For the compound `CCCC(=O)Nc1ccc(NC(=O)c2cc3ccccc3o2)c(OC)c1`, the AC50 under setting [1] was 31.6 µM [rising, single point].

With `COc1ccc(-n2c(=O)[nH]c3c(C(N)=O)nc(C4CCCCC4)nc32)cc1`, under setting [1], the AC50 was 11.2 µM [rising, single point]. For the compound `COc1ccc(OC)c(CNC(=O)C2CCN(C(=O)N(C)C)CC2)c1`, the AC50 under setting [1] is 4.61 µM [falling, single point]. For the compound `CN(C)C(CNC(=O)CCCOc1ccccc1)c1ccco1` (centres undefined), the AC50 under setting [1] was 29.1 µM [rising, single point]. Take `CN(C)c1ccc(NC(=O)Nc2cccc(Cl)c2)cc1`: the AC50 under setting [1] was 9.2 µM [falling, partial curve, poor fit].

With `O=C(O)CNC(=O)c1ccccc1F`, the AC50 under setting [1] is 3.98 µM [falling, full curve]. For the compound `Cc1cccc(Nc2nc(NCC3CCCO3)nc(N)c2[N+](=O)[O-])c1` (centres undefined), under setting [1], the AC50 is 32.6 µM [rising, single point].

Turning to `Cc1cc(C(=O)N2CCC(C(=O)O)CC2)c(C(F)(F)F)o1`, under setting [1], the AC50 was 14.1 µM [falling, partial curve, poor fit]. Consider `CCN1CCN(c2ccc(S(=O)(=O)N3CCCCC3)cc2NC(=O)Cc2c(Cl)cccc2Cl)CC1`, for which the AC50 under setting [1] was 0.447 µM [rising, partial curve, poor fit]. For the compound `Cc1cc(OCCOCCNC(C)C)cc(C)c1Cl`, the AC50 under setting [1] is 2.06 µM [falling, full curve]. In the case of `CN(C)S(=O)(=O)Oc1cccc(C(=O)Nc2ccc(Cl)c(Cl)c2)c1`, the AC50 under setting [1] is 10 µM [falling, partial curve]. Same read-out and setting: the result for `Cc1ccc(-c2csc(NC(=O)Cn3cnc4c3c(=O)n(C)c(=O)n4C)n2)cc1C` reads 1.3 µM [falling, full curve, poor fit]. On to `O=C(c1cnn2c1NC(c1ccco1)CC2C(F)(F)F)N1CCN(c2cccc(Cl)c2)CC1` (centres undefined), for which, under setting [1], the AC50 is 2.06 µM [falling, partial curve, poor fit]. In the case of `O=C(Nc1cccc(Cn2cccn2)c1)c1cc2c(s1)CCCC2`, under setting [1], the AC50 is 29.1 µM [falling, single point]. Turning to `CC(=O)Nc1ccc(-n2nnnc2SCC(=O)Nc2cccc(NC(=O)c3ccco3)c2)cc1`, the AC50 under setting [1] was 1.26 µM [falling, full curve].

Regarding `COC(=O)N(NC(=O)C(O)(CCC(C)C)CCC(C)C)c1ccccc1`, under setting [1], the AC50 is 18.4 µM [falling, partial curve].

As for `COc1cccc2c1C(=O)c1c(O)c3c(c(O)c1C2=O)C[C@@](O)(C(=O)CO)C[C@@H]3O[C@H]1C[C@H](N)[C@H](O)[C@H](C)O1`, the AC50 is, setting by setting: under setting [1], 0.146 µM [falling, full curve]; under setting [2], 4.11 µM [rising, partial curve]. Take `COC(=O)c1ccccc1NC(=S)NC(=O)COc1ccc(C(C)C)cc1`: the AC50 under setting [1] is 6.51 µM [rising, single point].

For `COC(=O)N/N=C/c1c(C)c(C(=O)c2ccc(F)cc2)n2ccccc12`, the AC50 under setting [1] is 0.82 µM [falling, full curve, poor fit]. The same measure, in the same setting: the result for `Cc1cc2nc(N3CCN(C(=O)c4ccco4)CC3)sc2cc1C` reads 1.64 µM [rising, partial curve, poor fit]. Consider `CCN(CC(O)Cn1c2ccccc2c2ccccc21)S(=O)(=O)c1ccc(F)cc1` (centres undefined), for which the AC50 runs as follows: under setting [1], 7.31 µM [falling, partial curve]; under setting [2], 4.11 µM [rising, full curve, poor fit]. In the case of `COc1ccc(Cl)cc1NC(=O)CN1C(=O)CC(C)S(=O)(=O)c2ccccc21` (centres undefined), the AC50 under setting [1] was 35.5 µM [falling, partial curve, poor fit].

On to `O=C(COc1ccc(Cl)cc1Cl)NCCC1=CCCCC1`, for which the AC50 under setting [1] is 10 µM [rising, partial curve, poor fit]. On the same count and under the same terms, with `CCOc1ccc2nc(SCC(=O)c3ccc(C)s3)sc2c1` the figure was 3.66 µM [rising, single point]; with `O=C(CCN1C(=O)/C(=C/c2ccc3c(c2)OCO3)SC1=S)Nc1cccc(C(=O)O)c1`, 5.62 µM [falling, partial curve]. Same read-out and setting: with `COc1ccccc1CNC(=O)CC(C)c1ccccc1` (centres undefined) the figure was 0.708 µM [rising, full curve, poor fit].

As for `CCC(=O)Nc1ccc(C(=O)c2ccccc2)cc1`, the AC50 under setting [1] is 35.5 µM [falling, single point]. Same read-out and setting: the result for `CN(Cc1ccccc1)C(=S)NC(=O)c1ccccc1` reads 35.5 µM [rising, single point]; that for `COc1cc(NC(=O)CN2CCCCC2)c(C)cc1[N+](=O)[O-]`, 32.6 µM [rising, single point]; that for `Cc1nnc(SCC(=O)Nc2ncc(Cl)cc2Cl)n1Cc1ccccc1`, 23.1 µM [rising, single point].
